Results are given in words; binding and its absence hold for the method and conditions named. In cells and extracts the contact can be indirect. Some results given as binding are weak or reduced against the parent protein; the word gives no strength.
Target: T1, LDB2, endogenous in mouse brain (mouse (endogenous in brain)) (UniProt O55203)
T1 sequence: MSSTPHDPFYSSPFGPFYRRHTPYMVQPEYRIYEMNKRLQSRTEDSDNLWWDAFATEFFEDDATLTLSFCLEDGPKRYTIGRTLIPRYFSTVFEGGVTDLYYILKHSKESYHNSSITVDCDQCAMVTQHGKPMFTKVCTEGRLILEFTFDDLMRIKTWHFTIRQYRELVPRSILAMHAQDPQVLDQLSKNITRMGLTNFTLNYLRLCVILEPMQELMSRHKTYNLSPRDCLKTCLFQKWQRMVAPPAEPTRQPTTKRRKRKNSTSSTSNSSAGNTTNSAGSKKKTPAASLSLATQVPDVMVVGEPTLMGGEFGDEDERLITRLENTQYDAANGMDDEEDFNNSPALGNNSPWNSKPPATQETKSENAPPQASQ
Assay: co-IP; endogenous proteins in adult mouse brain lysate; immunocomplexes with an antibody against LDB2, LMO3 or SSBP3 or a control antibody; Western blot with anti-LDB2 or anti-SSBP3

binding: binds
B1: LMO3, endogenous in mouse brain (protein, UniProt Q8BZL8 1-145)
chain: MLSVQPDTKPKGCAGCNRKIKDRYLLKALDKYWHEDCLKCACCDCRLGEVGSTLYTKANLILCRRDYLRLFGVTGNCAACSKLIPAFEMVMRAKDNVYHLDCFACQLCNQRFCVGDKFFLKNNMILCQTDYEEGLMKEGYAPQVR

— PMC8033514
